Drawing on the supplement of paper PMC12819154, “High-throughput peptide-centric local stability assay extends protein–ligand identification to membrane proteins, tissues and bacteria” (Nature Structural & Molecular Biology, 2025), this text covers log2 fold change for 36 targets.

Protein sequences, listed by entry. Tags and fused reporters are not part of them. Lines headed by an entry give the natural chain unless they say otherwise; changes in a name come on top.
UniProt Q96HP4: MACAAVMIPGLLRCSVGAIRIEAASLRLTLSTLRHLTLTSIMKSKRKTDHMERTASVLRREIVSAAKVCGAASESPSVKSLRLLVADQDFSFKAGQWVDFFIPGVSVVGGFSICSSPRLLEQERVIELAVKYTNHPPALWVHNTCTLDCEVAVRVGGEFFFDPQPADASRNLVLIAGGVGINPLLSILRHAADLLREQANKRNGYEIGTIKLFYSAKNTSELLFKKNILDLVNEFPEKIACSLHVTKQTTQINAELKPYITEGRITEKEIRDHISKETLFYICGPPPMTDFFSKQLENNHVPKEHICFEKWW
UniProt Q96LR5: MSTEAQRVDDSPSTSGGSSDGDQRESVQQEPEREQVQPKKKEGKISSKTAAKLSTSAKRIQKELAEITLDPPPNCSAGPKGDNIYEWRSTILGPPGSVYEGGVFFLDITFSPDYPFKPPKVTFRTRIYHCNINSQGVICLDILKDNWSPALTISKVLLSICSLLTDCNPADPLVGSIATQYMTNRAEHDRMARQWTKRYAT
UniProt Q96IQ9: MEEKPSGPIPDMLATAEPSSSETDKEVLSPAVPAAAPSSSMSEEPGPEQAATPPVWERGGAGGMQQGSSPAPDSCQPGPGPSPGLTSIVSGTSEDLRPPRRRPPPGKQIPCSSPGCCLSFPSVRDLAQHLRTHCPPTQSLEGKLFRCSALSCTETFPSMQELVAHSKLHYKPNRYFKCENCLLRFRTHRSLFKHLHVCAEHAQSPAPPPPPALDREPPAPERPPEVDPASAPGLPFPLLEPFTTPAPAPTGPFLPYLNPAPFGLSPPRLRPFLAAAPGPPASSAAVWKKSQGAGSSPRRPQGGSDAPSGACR
UniProt Q96P16: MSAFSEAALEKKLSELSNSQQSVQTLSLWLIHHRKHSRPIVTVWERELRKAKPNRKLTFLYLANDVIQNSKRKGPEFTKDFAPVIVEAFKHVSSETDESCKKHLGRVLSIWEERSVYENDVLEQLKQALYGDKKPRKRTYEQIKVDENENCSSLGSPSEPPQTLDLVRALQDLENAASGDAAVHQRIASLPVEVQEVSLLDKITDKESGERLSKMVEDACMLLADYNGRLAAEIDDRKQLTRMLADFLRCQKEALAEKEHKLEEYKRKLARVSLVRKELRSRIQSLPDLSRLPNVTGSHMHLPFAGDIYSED
UniProt Q96L94: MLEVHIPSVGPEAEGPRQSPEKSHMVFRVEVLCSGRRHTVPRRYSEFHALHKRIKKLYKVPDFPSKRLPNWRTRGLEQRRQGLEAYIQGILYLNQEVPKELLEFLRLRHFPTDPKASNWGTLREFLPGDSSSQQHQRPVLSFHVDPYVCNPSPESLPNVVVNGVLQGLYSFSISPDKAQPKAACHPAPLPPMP
UniProt Q96HN2, whole entry: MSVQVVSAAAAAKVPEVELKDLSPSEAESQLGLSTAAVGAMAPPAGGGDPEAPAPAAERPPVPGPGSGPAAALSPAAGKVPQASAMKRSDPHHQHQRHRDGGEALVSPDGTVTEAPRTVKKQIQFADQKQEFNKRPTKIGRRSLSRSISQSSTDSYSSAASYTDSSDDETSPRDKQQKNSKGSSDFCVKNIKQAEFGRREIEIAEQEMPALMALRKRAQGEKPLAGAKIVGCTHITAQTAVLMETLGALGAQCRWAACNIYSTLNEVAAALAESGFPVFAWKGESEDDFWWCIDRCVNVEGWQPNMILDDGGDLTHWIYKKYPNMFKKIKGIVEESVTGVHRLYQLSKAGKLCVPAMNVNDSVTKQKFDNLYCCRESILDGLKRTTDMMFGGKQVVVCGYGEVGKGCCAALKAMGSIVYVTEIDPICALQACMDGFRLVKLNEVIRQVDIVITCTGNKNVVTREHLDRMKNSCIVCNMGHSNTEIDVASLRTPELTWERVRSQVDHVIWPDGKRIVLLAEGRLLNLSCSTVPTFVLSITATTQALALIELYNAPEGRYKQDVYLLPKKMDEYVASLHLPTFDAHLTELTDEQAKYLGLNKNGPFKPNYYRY
UniProt Q96Q15: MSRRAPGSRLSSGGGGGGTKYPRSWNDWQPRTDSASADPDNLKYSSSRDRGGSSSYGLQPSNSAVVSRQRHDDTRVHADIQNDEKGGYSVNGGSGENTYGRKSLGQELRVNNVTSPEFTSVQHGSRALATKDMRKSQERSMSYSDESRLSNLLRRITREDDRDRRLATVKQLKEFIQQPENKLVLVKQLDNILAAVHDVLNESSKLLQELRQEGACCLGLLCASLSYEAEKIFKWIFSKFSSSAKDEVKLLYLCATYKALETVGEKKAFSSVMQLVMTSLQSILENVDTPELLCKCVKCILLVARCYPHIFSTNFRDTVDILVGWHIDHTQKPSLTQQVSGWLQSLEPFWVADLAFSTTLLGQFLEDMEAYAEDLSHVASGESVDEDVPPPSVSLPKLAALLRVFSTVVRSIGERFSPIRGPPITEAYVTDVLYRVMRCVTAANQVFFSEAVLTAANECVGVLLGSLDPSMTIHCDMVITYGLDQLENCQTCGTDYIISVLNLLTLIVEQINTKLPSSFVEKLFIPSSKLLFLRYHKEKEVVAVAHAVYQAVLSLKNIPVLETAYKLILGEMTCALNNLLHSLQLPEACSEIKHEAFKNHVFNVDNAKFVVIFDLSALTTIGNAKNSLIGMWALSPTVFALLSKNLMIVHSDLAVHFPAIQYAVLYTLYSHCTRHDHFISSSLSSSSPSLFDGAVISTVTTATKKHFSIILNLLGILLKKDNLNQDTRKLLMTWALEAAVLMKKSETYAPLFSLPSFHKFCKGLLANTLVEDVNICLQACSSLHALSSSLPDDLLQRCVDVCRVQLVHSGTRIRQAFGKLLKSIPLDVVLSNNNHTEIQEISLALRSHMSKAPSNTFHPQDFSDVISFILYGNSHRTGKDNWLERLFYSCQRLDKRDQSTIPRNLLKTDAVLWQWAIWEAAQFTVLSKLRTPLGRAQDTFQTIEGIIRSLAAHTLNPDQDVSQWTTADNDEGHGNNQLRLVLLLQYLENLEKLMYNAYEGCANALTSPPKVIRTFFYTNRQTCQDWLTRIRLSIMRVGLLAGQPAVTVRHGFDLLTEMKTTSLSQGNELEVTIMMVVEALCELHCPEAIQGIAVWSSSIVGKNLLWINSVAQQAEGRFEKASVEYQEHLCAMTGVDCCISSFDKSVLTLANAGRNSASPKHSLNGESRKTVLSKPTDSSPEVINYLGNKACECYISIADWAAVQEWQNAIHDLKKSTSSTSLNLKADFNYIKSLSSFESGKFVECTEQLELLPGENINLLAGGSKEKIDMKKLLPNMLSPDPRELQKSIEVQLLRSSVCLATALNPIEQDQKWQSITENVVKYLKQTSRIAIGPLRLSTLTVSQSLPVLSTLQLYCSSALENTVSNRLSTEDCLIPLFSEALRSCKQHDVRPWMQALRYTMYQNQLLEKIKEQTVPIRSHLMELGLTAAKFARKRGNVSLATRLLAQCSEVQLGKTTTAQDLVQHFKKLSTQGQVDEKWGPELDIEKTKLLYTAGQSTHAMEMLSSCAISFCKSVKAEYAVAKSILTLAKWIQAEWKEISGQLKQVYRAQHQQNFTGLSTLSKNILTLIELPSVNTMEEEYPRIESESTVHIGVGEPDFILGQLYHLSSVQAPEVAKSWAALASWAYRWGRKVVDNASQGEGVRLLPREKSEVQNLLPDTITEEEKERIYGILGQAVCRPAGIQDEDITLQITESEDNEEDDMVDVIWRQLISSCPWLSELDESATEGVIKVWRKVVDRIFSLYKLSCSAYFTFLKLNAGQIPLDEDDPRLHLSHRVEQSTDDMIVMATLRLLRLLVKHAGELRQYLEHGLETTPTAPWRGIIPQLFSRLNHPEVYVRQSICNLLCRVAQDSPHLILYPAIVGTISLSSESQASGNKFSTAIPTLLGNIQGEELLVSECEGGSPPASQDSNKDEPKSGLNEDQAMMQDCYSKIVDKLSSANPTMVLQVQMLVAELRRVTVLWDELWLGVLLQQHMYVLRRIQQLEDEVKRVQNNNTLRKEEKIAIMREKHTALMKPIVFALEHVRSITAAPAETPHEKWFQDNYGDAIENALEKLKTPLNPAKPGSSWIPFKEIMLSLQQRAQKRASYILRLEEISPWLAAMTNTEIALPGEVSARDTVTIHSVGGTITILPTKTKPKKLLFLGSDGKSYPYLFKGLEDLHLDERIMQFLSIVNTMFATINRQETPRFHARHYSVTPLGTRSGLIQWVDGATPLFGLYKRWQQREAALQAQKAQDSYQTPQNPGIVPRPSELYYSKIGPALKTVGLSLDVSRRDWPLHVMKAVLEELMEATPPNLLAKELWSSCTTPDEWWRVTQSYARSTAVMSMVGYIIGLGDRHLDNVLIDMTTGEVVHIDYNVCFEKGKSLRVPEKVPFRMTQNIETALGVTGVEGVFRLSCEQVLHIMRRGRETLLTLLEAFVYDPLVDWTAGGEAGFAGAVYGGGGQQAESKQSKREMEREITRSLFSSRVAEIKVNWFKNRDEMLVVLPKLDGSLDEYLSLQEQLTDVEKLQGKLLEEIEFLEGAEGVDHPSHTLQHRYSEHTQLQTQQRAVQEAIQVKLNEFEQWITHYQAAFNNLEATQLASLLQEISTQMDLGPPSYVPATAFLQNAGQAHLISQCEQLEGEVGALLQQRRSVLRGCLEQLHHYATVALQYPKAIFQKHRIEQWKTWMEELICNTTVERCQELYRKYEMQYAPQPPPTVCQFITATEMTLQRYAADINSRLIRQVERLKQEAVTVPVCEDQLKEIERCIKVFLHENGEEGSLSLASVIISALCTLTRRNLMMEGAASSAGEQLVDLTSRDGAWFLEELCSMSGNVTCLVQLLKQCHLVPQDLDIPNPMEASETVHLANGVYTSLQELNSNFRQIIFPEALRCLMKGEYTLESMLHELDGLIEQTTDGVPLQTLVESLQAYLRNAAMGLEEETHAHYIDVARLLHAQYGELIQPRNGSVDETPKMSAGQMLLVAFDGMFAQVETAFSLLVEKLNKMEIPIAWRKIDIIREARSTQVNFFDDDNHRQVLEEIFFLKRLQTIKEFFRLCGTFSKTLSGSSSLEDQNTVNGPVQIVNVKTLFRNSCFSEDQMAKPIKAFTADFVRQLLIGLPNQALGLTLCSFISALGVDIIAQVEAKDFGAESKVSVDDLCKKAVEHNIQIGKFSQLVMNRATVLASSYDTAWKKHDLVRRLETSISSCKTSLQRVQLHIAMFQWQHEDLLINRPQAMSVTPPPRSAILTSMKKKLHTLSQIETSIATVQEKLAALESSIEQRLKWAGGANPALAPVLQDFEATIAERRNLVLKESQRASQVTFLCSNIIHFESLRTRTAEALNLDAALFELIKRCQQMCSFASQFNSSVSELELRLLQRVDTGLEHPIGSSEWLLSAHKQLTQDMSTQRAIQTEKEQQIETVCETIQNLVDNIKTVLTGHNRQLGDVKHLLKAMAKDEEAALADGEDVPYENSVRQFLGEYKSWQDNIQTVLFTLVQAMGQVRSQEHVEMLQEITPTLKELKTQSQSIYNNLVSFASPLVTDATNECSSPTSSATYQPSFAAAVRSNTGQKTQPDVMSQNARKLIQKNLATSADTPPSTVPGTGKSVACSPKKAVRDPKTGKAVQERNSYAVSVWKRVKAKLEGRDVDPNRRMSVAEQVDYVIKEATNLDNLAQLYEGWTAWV
UniProt Q96T37: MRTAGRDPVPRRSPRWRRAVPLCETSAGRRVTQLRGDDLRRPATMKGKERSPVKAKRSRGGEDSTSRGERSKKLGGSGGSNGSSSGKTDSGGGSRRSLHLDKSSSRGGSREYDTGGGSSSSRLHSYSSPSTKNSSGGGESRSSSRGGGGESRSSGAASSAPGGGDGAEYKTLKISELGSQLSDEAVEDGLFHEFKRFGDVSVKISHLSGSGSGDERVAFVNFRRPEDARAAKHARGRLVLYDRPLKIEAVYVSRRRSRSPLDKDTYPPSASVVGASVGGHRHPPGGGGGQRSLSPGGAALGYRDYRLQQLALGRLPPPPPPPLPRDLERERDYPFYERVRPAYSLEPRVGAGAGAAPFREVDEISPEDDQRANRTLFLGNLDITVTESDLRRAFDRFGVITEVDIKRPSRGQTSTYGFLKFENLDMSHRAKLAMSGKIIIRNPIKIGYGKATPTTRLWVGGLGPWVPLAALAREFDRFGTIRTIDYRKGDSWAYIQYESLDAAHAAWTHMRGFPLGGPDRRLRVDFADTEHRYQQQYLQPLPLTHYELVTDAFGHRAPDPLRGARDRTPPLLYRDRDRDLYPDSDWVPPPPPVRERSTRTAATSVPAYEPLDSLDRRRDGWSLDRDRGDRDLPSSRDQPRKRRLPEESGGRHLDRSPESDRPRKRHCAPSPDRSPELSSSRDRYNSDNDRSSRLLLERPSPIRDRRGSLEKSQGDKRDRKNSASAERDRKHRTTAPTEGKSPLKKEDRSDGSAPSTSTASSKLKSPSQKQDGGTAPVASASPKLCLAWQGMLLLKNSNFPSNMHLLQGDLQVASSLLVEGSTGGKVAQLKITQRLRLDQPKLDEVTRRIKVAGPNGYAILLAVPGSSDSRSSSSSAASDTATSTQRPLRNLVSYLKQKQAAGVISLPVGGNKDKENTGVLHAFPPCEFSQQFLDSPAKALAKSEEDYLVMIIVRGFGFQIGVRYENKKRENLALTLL

The list shows a part of the results. Small differences around the control level are noise.

Compound in this assay: CN[C@@H]1C[C@H]2O[C@@](C)([C@@H]1OC)n1c3ccccc3c3c4c(c5c6ccccc6n2c5c31)C(=O)NC4 [staurosporine]
Put plainly: log2 fold change of tryptic peptide abundance, ligand vs vehicle (limited proteolysis) (log2 ratio); higher = more trypsin-susceptible (destabilized). As to conditions: ligand concentration: 20 uM; sample: K562 cleared lysate; digestion: 4 min, 22 C (HT-PELSA RT4min, Orbitrap Astral).
As for “EAF1 (peptide sequence: APTKPPVGPK, peptide start residue: 147) (UniProt Q96JC9)”, the log2 fold change stood at 0.0318. On to “UniProt Q96SQ5 (peptide sequence: LRVSQEPFVFR, peptide start residue: 163)”, for which the log2 fold change was -0.754.

“GFM1 (peptide sequence: VYFDTENK, peptide start residue: 482) (UniProt Q96RP9)”: the log2 fold change worked out at 0.0741.

Consider “OXNAD1 (peptide sequence: KTDHMER, peptide start residue: 47) (UniProt Q96HP4)”, for which the log2 fold change came to 0.274. To “COG8 (peptide sequence: NSYYEEALELAAYVR, peptide start residue: 168) (UniProt Q96MW5)” belongs 0.63; to “L3MBTL3 (peptide sequence: IFNSILMFK, peptide start residue: 762) (UniProt Q96JM7)”, -0.453.

In the case of “UniProt Q96NA8 (peptide sequence: ALLPMAQR, peptide start residue: 366)”, the log2 fold change stood at 0.24.

With “BBS4 (peptide sequence: TQFPVSTESQKPR, peptide start residue: 10) (UniProt Q96RK4)”, the log2 fold change is -0.275. Then “FAM193B (peptide sequence: AQLAAEALK, peptide start residue: 510) (UniProt Q96PV7)”, with -0.193.

Take “UniProt Q96Q05 (peptide sequence: SPFIYSPIIAHNR, peptide start residue: 569)”: the log2 fold change was -0.075. To “UBE2E2 (peptide sequence: ESVQQEPEREQVQPK, peptide start residue: 25) (UniProt Q96LR5)” belongs -0.22; to “CCDC136 (peptide sequence: FQTSHSVTQNEELK, peptide start residue: 355) (UniProt Q96JN2)”, -0.0286; to “UniProt Q96SN7 (peptide sequence: HNREIEELHK, peptide start residue: 230)”, -0.184.

“ZNF414 (peptide sequence: RPQGGSDAPSGACR, peptide start residue: 299) (UniProt Q96IQ9)”: the log2 fold change is -0.4. With “RPRD1A (peptide sequence: MVEDACMLLADYNGR, peptide start residue: 215) (UniProt Q96P16)”, the log2 fold change is -0.253.

“IFT74 (peptide sequence: VATAMPPGTARPGSR, peptide start residue: 37) (UniProt Q96LB3)”: the log2 fold change is -0.373. Then “UniProt Q96L94 (peptide sequence: ELLEFLR, peptide start residue: 100)”, with -0.15; and “AHCYL2 (peptide sequence: SVQVVSAAAAAK, peptide start residue: 2) (UniProt Q96HN2)”, with -0.114. Then “CLPTM1L (peptide sequence: VNEFGESYEEK, peptide start residue: 520) (UniProt Q96KA5)”, with 0.55; and “RNPC3 (peptide sequence: LLGHTLVVEFAK, peptide start residue: 90) (UniProt Q96LT9)”, with -0.142; and “UniProt Q96GY0 (peptide sequence: KHEEFIATIR, peptide start residue: 83)”, with -0.51. To “SMG1 (peptide sequence: VNNVTSPEFTSVQHGSR, peptide start residue: 110) (UniProt Q96Q15)” belongs 0.303; to “ZFP91 (peptide sequence: RSSPSARPPDVPGQQPQAAK, peptide start residue: 81) (UniProt Q96JP5)”, 0.475. Regarding “CEP63 (peptide sequence: MEISHLTQELHQR, peptide start residue: 415) (UniProt Q96MT8)”, the log2 fold change was -0.194. As to “YME1L1 (peptide sequence: LGVMTYSDTGK, peptide start residue: 698) (UniProt Q96TA2)”, the log2 fold change is 0.412. Then “METTL2A (peptide sequence: DYGRYDMAQLR, peptide start residue: 292) (UniProt Q96IZ6)”, with 0.503; and “IFT140 (peptide sequence: AVELLLAAR, peptide start residue: 1142) (UniProt Q96RY7)”, with -0.28. Take “MTMR9 (peptide sequence: AKGGGFEQEAHYPQWR, peptide start residue: 247) (UniProt Q96QG7)”: the log2 fold change was -0.285. Then “PCMTD1 (peptide sequence: LPLPESLK, peptide start residue: 341) (UniProt Q96MG8)”, with 0.43. To “LYSMD1 (peptide sequence: KGENGVPGEDAGLHLSSPWMQQR, peptide start residue: 178) (UniProt Q96S90)” belongs -0.387. To “CCDC43 (peptide sequence: MVSEEEKQR, peptide start residue: 119) (UniProt Q96MW1)” belongs 0.172; to “WDR24 (peptide sequence: DMAPGLGSETRLDR, peptide start residue: 489) (UniProt Q96S15)”, 0.408; to “NUDCD1 (peptide sequence: VKRPLLDPR, peptide start residue: 11) (UniProt Q96RS6)”, 0.464. On to “RBM15 (peptide sequence: TAATSVPAYEPLDSLDR, peptide start residue: 600) (UniProt Q96T37)”, for which the log2 fold change is -0.371. Then “C5orf30 (peptide sequence: ALHGPLPLCLLK, peptide start residue: 148) (UniProt Q96GV9)”, with 0.318; and “NGLY1 (peptide sequence: YSCKHEEVIAR, peptide start residue: 391) (UniProt Q96IV0)”, with 0.315.
